Reference: article PMC8801411
These are yes or no findings as the source states them, for the method shown. In cells and extracts the contact can be indirect. Some results given as binding are weak or reduced against the parent protein; the word gives no strength. Tags and fused reporters may be left off the sequences shown.

Tests used:
Test in all cases: pull-down; GST-Gal80 fusions immobilised on GSH sepharose, incubated with bacterial (E. coli) total protein extracts containing HA3-Cyc8 or HA3-Tup1; washing of intermediary stringency; elution with 10 mM free GSH; SDS-PAGE and blot with anti-HA-peroxidase conjugate; only the target purified
[1] = target: T1, GST-Gal80 (full-length) (S. cerevisiae) (UniProt P04387)
T1 sequence: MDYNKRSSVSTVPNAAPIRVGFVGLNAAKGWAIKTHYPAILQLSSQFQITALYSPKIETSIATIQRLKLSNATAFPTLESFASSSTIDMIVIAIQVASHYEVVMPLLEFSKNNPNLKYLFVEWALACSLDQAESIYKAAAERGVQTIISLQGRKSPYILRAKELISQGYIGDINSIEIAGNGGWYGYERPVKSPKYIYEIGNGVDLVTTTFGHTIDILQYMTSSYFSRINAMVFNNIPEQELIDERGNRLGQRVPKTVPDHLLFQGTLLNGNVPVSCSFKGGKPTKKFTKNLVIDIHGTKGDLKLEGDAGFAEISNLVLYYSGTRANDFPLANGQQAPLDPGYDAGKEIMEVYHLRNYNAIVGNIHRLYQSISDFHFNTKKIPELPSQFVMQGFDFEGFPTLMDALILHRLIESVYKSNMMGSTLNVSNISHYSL

[2] = target: T2, GST-Gal80 aa 81-145 V121A (S. cerevisiae) (UniProt P04387)
T2 sequence: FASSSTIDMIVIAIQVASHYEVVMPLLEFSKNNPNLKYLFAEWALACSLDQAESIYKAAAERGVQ

[3] = target: T3, GST-Gal80 aa 81-145 W123A (S. cerevisiae) (UniProt P04387)
T3 sequence: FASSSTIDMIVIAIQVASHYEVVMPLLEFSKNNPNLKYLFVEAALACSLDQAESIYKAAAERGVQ

[4] = target: T4, GST-Gal80 aa 81-145 L119A (S. cerevisiae) (UniProt P04387)
T4 sequence: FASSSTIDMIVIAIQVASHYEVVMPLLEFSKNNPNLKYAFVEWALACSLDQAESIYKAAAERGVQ

[5] = target: T5, GST-Gal80 aa 81-145 LFV-AAA (pos. 119-121) (S. cerevisiae) (UniProt P04387)
T5 sequence: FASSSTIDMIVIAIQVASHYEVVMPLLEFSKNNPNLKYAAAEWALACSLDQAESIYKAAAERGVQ

[6] = target: T6, GST-Gal80 aa 81-145 Y118A (S. cerevisiae) (UniProt P04387)
T6 sequence: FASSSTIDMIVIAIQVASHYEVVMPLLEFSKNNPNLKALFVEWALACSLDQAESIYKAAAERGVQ

[7] = target: T7, GST-Gal80 aa 81-145 YLF-AAA (pos. 118-120) (S. cerevisiae) (UniProt P04387)
T7 sequence: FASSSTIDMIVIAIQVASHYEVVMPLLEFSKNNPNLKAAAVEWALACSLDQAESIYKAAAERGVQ

[8] = target: T8, GST-Gal80 aa 81-145 F120A (S. cerevisiae) (UniProt P04387)
T8 sequence: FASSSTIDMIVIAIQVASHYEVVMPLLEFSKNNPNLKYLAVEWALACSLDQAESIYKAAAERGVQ

[9] = target: T9, GST-Gal80 aa 146-290 (S. cerevisiae) (UniProt P04387)
T9 sequence: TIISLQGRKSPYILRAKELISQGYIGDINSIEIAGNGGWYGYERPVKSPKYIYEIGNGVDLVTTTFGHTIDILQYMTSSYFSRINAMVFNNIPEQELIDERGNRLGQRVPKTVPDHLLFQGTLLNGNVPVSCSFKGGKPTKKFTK

[10] = target: T10, GST-Gal80 aa 81-145 K117A (S. cerevisiae) (UniProt P04387)
T10 sequence: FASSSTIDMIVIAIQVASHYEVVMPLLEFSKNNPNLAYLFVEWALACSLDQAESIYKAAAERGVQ

Measured: binding

B1: HA3-Cyc8 (aa 1-398, TPR-containing domain) (domain or fragment, UniProt P14922 1-398)
chain: MNPGGEQTIMEQPAQQQQQQQQQQQQQQQQAAVPQQPLDPLTQSTAETWLSIASLAETLGDGDRAAMAYDATLQFNPSSAKALTSLAHLYRSRDMFQRAAELYERALLVNPELSDVWATLGHCYLMLDDLQRAYNAYQQALYHLSNPNVPKLWHGIGILYDRYGSLDYAEEAFAKVLELDPHFEKANEIYFRLGIIYKHQGKWSQALECFRYILPQPPAPLQEWDIWFQLGSVLESMGEWQGAKEAYEHVLAQNQHHAKVLQQLGCLYGMSNVQFYDPQKALDYLLKSLEADPSDATTWYHLGRVHMIRTDYTAAYDAFQQAVNRDSRNPIFWCSIGVLYYQISQYRDALDAYTRAIRLNPYISEVWYDLGTLYETCNNQLSDALDAYKQAARLDVNN
binds: all assays above
